# Source: the supplement of paper PMC8728848
# The list shows a part of the results.
# B1: Clec12b (Mus musculus), Q149M0 (protein)
# chain: MSDEVTYATLMLQDSARVRGNQDGNNLRKEGHPAQSSLWRGAALSLMTLCLVLVTGLVTLATMFLQVSNDINSDSEKLSQLQKSIHPQQDNLSESLNSSRKSLTEESLQSQISALLERQEQMATKLCKEFLIHASDHKCNPCPKTWQWYGNSCYYFSINEEKSWSDSRKDCIDKNATLVKIDSTEERDLLQSQLSLTFSFFWLGLSWNSSGRNWLWEDGSFPPPTLFSDKELASFNGSRDCAYFERGNIYASRCSAEIPWICEKTASLVKTEDLD
# Assays:
# Assay in all cases: glycan array binding signal (z-score within array); higher = stronger binding
# Details in all cases: glycan notation: IUPAC condensed, linker removed
# [1] = molecular target: GlcNAc(a1-3)Gal(b1-4)GlcNAc
# How it was run: (§1)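 From the Consortium for Functional Glycomics database, 3228 arrays were curated, keeping only those whose protein sequence was available. Binding is given as a within-array Z-score averaged across arrays sharing a protein sequence and across linkers. Negative Z-scores can be read as non-binding.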
# [2] = molecular target: GlcNAc(a1-4)Gal(b1-3)GlcNAc
# How it was run: as §1
# [3] = molecular target: GlcNAc(a1-4)Gal(b1-4)GalNAc
# How it was run: as §1
# [4] = molecular target: GlcNAc(a1-4)Gal(b1-4)GlcNAc
# How it was run: as §1
# [5] = molecular target: GlcNAc(a1-4)Gal(b1-4)GlcNAc(b1-3)Gal(b1-4)Glc
# How it was run: as §1
# [6] = molecular target: GlcNAc(a1-4)Gal(b1-4)GlcNAc(b1-3)Gal(b1-4)GlcNAc
# How it was run: as §1
# [7] = molecular target: GlcNAc(a1-4)Gal(b1-4)GlcNAc(b1-3)Gal(b1-4)GlcNAc(b1-3)Gal(b1-4)GlcNAc
# How it was run: as §1
# [8] = molecular target: GlcNAc(a1-4)Gal(b1-4)GlcNAc(b1-3)Gal(b1-4)[Fuc(a1-3)]GlcNAc(b1-3)Gal(b1-4)[Fuc(a1-3)]GlcNAc
# How it was run: as §1
# [9] = molecular target: GlcNAc(a1-6)Gal(b1-4)GlcNAc
# How it was run: as §1
# [10] = molecular target: GlcNAc(b1-2)Gal(b1-3)GalNAc
# How it was run: as §1
# [11] = molecular target: GlcNAc(b1-2)Man(a1-3)[GlcNAc(b1-2)Man(a1-6)]Man(b1-4)GlcNAc(b1-4)GlcNAc
# How it was run: as §1
# [12] = molecular target: GlcNAc(b1-2)Man(a1-3)[GlcNAc(b1-2)Man(a1-6)]Man(b1-4)GlcNAc(b1-4)[Fuc(a1-6)]GlcNAc
# How it was run: as §1
# [13] = molecular target: GlcNAc(b1-2)Man(a1-3)[GlcNAc(b1-4)][GlcNAc(b1-2)Man(a1-6)]Man(b1-4)GlcNAc(b1-4)GlcNAc
# How it was run: as §1
# [14] = molecular target: GlcNAc(b1-2)Man(a1-3)[GlcNAc(b1-4)][GlcNAc(b1-2)Man(a1-6)]Man(b1-4)GlcNAc(b1-4)[Fuc(a1-6)]GlcNAc
# How it was run: as §1
# [15] = molecular target: GlcNAc(b1-2)[GlcNAc(b1-4)]Man(a1-3)[GlcNAc(b1-2)Man(a1-6)]Man(b1-4)GlcNAc(b1-4)GlcNAc
# How it was run: as §1
# [16] = molecular target: GlcNAc(b1-2)[GlcNAc(b1-4)]Man(a1-3)[GlcNAc(b1-4)][GlcNAc(b1-2)Man(a1-6)]Man(b1-4)GlcNAc(b1-4)GlcNAc
# How it was run: as §1
# [17] = molecular target: GlcNAc(b1-2)[GlcNAc(b1-4)]Man(a1-3)[GlcNAc(b1-4)][GlcNAc(b1-2)[GlcNAc(b1-6)]Man(a1-6)]Man(b1-4)GlcNAc(b1-4)GlcNAc
# How it was run: as §1
# [18] = molecular target: GlcNAc(b1-2)[GlcNAc(b1-4)]Man(a1-3)[GlcNAc(b1-4)][GlcNAc(b1-2)[GlcNAc(b1-6)]Man(a1-6)]Man(b1-4)GlcNAc(b1-4)[Fuc(a1-6)]GlcNAc
# How it was run: as §1
# [19] = molecular target: GlcNAc(b1-2)[GlcNAc(b1-6)]Man(a1-6)[GlcNAc(b1-2)Man(a1-3)]Man(b1-4)GlcNAc(b1-4)GlcNAc
# How it was run: as §1
# [20] = molecular target: GlcNAc(b1-2)[GlcNAc(b1-6)]Man(a1-6)[GlcNAc(b1-2)Man(a1-3)]Man(b1-4)GlcNAc(b1-4)[Fuc(a1-6)]GlcNAc
# How it was run: as §1
# [21] = molecular target: GlcNAc(b1-2)[GlcNAc(b1-6)]Man(a1-6)[GlcNAc(b1-4)][GlcNAc(b1-2)Man(a1-3)]Man(b1-4)GlcNAc(b1-4)GlcNAc
# How it was run: as §1
# GlcNAc(b1-3)Fuc = molecular target: GlcNAc(b1-3)Fuc
# How it was run: as §1
# GlcNAc(b1-3)Gal = molecular target: GlcNAc(b1-3)Gal
# How it was run: as §1
# [22] = molecular target: GlcNAc(b1-3)Gal(b1-3)GalNAc
# How it was run: as §1
# GlcNAc(b1-3)Gal(b1-4)Glc = molecular target: GlcNAc(b1-3)Gal(b1-4)Glc
# How it was run: as §1
# [23] = molecular target: GlcNAc(b1-3)Gal(b1-4)GlcNAc
# How it was run: as §1
# [24] = molecular target: GlcNAc(b1-3)Gal(b1-4)GlcNAc(b1-2)Man(a1-3)[GlcNAc(b1-3)Gal(b1-4)GlcNAc(b1-2)Man(a1-6)]Man(b1-4)GlcNAc(b1-4)GlcNAc
# How it was run: as §1
# [25] = molecular target: GlcNAc(b1-3)Gal(b1-4)GlcNAc(b1-2)Man(a1-3)[GlcNAc(b1-3)Gal(b1-4)GlcNAc(b1-2)Man(a1-6)]Man(b1-4)GlcNAc(b1-4)[Fuc(a1-6)]GlcNAc
# How it was run: as §1
# [26] = molecular target: GlcNAc(b1-3)Gal(b1-4)GlcNAc(b1-2)[GlcNAc(b1-3)Gal(b1-4)GlcNAc(b1-6)]Man(a1-6)[GlcNAc(b1-3)Gal(b1-4)GlcNAc(b1-2)Man(a1-3)]Man(b1-4)GlcNAc(b1-4)GlcNAc
# How it was run: as §1
# [27] = molecular target: GlcNAc(b1-3)Gal(b1-4)GlcNAc(b1-3)Gal(b1-4)GlcNAc
# How it was run: as §1
# [28] = molecular target: GlcNAc(b1-3)Gal(b1-4)GlcNAc(b1-3)Gal(b1-4)GlcNAc(b1-2)Man(a1-3)[GlcNAc(b1-3)Gal(b1-4)GlcNAc(b1-3)Gal(b1-4)GlcNAc(b1-2)Man(a1-6)]Man(b1-4)GlcNAc(b1-4)GlcNAc
# How it was run: as §1
# [29] = molecular target: GlcNAc(b1-3)Gal(b1-4)GlcNAc(b1-3)Gal(b1-4)GlcNAc(b1-2)Man(a1-3)[GlcNAc(b1-3)Gal(b1-4)GlcNAc(b1-3)Gal(b1-4)GlcNAc(b1-2)Man(a1-6)]Man(b1-4)GlcNAc(b1-4)[Fuc(a1-6)]GlcNAc
# How it was run: as §1
# [30] = molecular target: GlcNAc(b1-3)Gal(b1-4)GlcNAc(b1-3)Gal(b1-4)GlcNAc(b1-2)[GlcNAc(b1-3)Gal(b1-4)GlcNAc(b1-3)Gal(b1-4)GlcNAc(b1-6)]Man(a1-6)[GlcNAc(b1-3)Gal(b1-4)GlcNAc(b1-3)Gal(b1-4)GlcNAc(b1-2)Man(a1-3)]Man(b1-4)GlcNAc(b1-4)[Fuc(a1-6)]GlcNAc
# How it was run: as §1
# [31] = molecular target: GlcNAc(b1-3)Gal(b1-4)GlcNAc(b1-3)Gal(b1-4)GlcNAc(b1-3)Gal(b1-4)GlcNAc(b1-2)Man(a1-3)[GlcNAc(b1-3)Gal(b1-4)GlcNAc(b1-3)Gal(b1-4)GlcNAc(b1-3)Gal(b1-4)GlcNAc(b1-2)Man(a1-6)]Man(b1-4)GlcNAc(b1-4)GlcNAc
# How it was run: as §1
# [32] = molecular target: GlcNAc(b1-3)Gal(b1-4)GlcNAc(b1-3)Gal(b1-4)GlcNAc(b1-3)Gal(b1-4)GlcNAc(b1-2)Man(a1-3)[GlcNAc(b1-3)Gal(b1-4)GlcNAc(b1-3)Gal(b1-4)GlcNAc(b1-3)Gal(b1-4)GlcNAc(b1-2)Man(a1-6)]Man(b1-4)GlcNAc(b1-4)[Fuc(a1-6)]GlcNAc
# How it was run: as §1
# [33] = molecular target: GlcNAc(b1-3)Gal(b1-4)GlcNAc(b1-3)Gal(b1-4)GlcNAc(b1-3)Gal(b1-4)GlcNAc(b1-2)[GlcNAc(b1-3)Gal(b1-4)GlcNAc(b1-3)Gal(b1-4)GlcNAc(b1-3)Gal(b1-4)GlcNAc(b1-6)]Man(a1-6)[GlcNAc(b1-3)Gal(b1-4)GlcNAc(b1-3)Gal(b1-4)GlcNAc(b1-3)Gal(b1-4)GlcNAc(b1-2)Man(a1-3)]Man(b1-4)GlcNAc(b1-4)[Fuc(a1-6)]GlcNAc
# How it was run: as §1
# [34] = molecular target: GlcNAc(b1-3)Gal(b1-4)GlcNAc(b1-3)Gal(b1-4)GlcNAc(b1-3)Gal(b1-4)GlcNAc(b1-3)Gal(b1-4)GlcNAc(b1-2)Man(a1-3)[GlcNAc(b1-3)Gal(b1-4)GlcNAc(b1-3)Gal(b1-4)GlcNAc(b1-3)Gal(b1-4)GlcNAc(b1-3)Gal(b1-4)GlcNAc(b1-2)Man(a1-6)]Man(b1-4)GlcNAc(b1-4)GlcNAc
# How it was run: as §1
# [35] = molecular target: GlcNAc(b1-3)Gal(b1-4)GlcNAc(b1-3)Gal(b1-4)GlcNAc(b1-3)Gal(b1-4)GlcNAc(b1-3)Gal(b1-4)GlcNAc(b1-2)Man(a1-3)[GlcNAc(b1-3)Gal(b1-4)GlcNAc(b1-3)Gal(b1-4)GlcNAc(b1-3)Gal(b1-4)GlcNAc(b1-3)Gal(b1-4)GlcNAc(b1-2)Man(a1-6)]Man(b1-4)GlcNAc(b1-4)[Fuc(a1-6)]GlcNAc
# How it was run: as §1
binder,measurement,setting,value
B1,glycan array binding signal (z-score),[1],-0.343
same,glycan array binding signal (z-score),[2],-0.587
same,glycan array binding signal (z-score),[3],-0.3
same,glycan array binding signal (z-score),[4],1.28
same,glycan array binding signal (z-score),[5],-0.275
same,glycan array binding signal (z-score),[6],-0.57
same,glycan array binding signal (z-score),[7],-0.56
same,glycan array binding signal (z-score),[8],0.317
same,glycan array binding signal (z-score),[9],-0.463
same,glycan array binding signal (z-score),[10],0.039
same,glycan array binding signal (z-score),[11],-0.704
same,glycan array binding signal (z-score),[12],0.763
same,glycan array binding signal (z-score),[13],-0.757
same,glycan array binding signal (z-score),[14],-0.652
same,glycan array binding signal (z-score),[15],-0.656
same,glycan array binding signal (z-score),[16],0.052
same,glycan array binding signal (z-score),[17],-0.558
same,glycan array binding signal (z-score),[18],-0.799
same,glycan array binding signal (z-score),[19],-0.705
same,glycan array binding signal (z-score),[20],-0.602
same,glycan array binding signal (z-score),[21],-0.828
same,glycan array binding signal (z-score),GlcNAc(b1-3)Fuc,-0.612
same,glycan array binding signal (z-score),GlcNAc(b1-3)Gal,-0.39
same,glycan array binding signal (z-score),[22],0.06
same,glycan array binding signal (z-score),GlcNAc(b1-3)Gal(b1-4)Glc,2.54
same,glycan array binding signal (z-score),[23],-0.633
same,glycan array binding signal (z-score),[24],-0.661
same,glycan array binding signal (z-score),[25],-0.412
same,glycan array binding signal (z-score),[26],1.09
same,glycan array binding signal (z-score),[27],-0.821
same,glycan array binding signal (z-score),[28],-0.27
same,glycan array binding signal (z-score),[29],-0.653
same,glycan array binding signal (z-score),[30],1.27
same,glycan array binding signal (z-score),[31],-0.433
same,glycan array binding signal (z-score),[32],-0.509
same,glycan array binding signal (z-score),[33],-0.301
same,glycan array binding signal (z-score),[34],-0.627
same,glycan array binding signal (z-score),[35],-0.545
